Results as given in publication doi:10.1101/513135.

Biological target: T1, Mdh1-GFP (S. cerevisiae) (UniProt P17505)
T1 sequence: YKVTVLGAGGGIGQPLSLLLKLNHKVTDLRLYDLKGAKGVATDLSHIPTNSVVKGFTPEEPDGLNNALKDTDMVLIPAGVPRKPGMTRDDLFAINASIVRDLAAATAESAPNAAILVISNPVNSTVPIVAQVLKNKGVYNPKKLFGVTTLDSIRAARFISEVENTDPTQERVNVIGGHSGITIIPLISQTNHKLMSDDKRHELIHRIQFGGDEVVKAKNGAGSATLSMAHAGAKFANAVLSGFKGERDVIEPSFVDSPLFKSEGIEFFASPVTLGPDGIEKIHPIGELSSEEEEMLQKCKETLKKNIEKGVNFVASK
Experiment: affinity purification with mass spectrometry

B1: Idh1 (protein, UniProt P28834 12-360)
chain: ATAAQAERTLPKKYGGRFTVTLIPGDGVGKEITDSVRTIFEAENIPIDWETINIKQTDHKEGVYEAVESLKRNKIGLKGLWHTPADQTGHGSLNVALRKQLDIYANVALFKSLKGVKTRIPDIDLIVIRENTEGEFSGLEHESVPGVVESLKVMTRPKTERIARFAFDFAKKYNRKSVTAVHKANIMKLGDGLFRNIITEIGQKEYPDIDVSSIIVDNASMQAVAKPHQFDVLVTPSMYGTILGNIGAALIGGPGLVAGANFGRDYAVFEPGSRHVGLDIKGQNVANPTAMILSSTLMLNHLGLNEYATRISKAVHETIAEGKHTTRDIGGSSSTTDFTNEIINKLSTM
  binding: binds

These are yes or no findings as the source states them, for the method shown. In cells and extracts the contact can be indirect. A yes stands for co-enrichment or nearness to the bait. Other partners may have been found. Tags and fused reporters may be left off the sequences shown.
